{"source": "patent US10617677B2", "about": "“Nuclear transport modulators and uses thereof” (Biogen MA Inc., priority 2012, dated 2020)", "test_system": "anti-collagen antibody induced arthritis", "experiment": "Anti-collagen antibody induced mouse model of rheumatoid arthritis (CAIA)", "type": "in vivo, mice", "details": "1 mg/kg intraperitoneally", "method": "Twenty-four (24) male Balb/c mice, aged 6 to 8 weeks were used. […] On study Day 0 (study commencement), all mice were subjected to a 2 mg intravenous injection of ArthritoMAb™ antibody cocktail (MD Biosciences # S1203001) followed by an intraperitoneal injection of LPS ([…]) on study Day 3. […] Treatments were administered once daily on days 4, 6, 8 and 10 for all groups, except where dosing vacations applied. If an animal's weight dropped below 87% of its day 0 starting weight, the animal was not dosed until it gained weight equivalent to 90% or more of day 0 weight.\nArthritis development, clinical signs and body weights were monitored in all mice on study days 0, 3-8, 10 and 12. Observations included changes in skin, fur, eyes, mucous membranes, occurrence of secretions and excretions (e.g., diarrhea) and autonomic activity (e.g., lacrimation, salivation, piloerection, pupil size, unusual respiratory pattern). […] Arthritis reactions were scored and recorded according to a 0-4 scale in ascending order of severity, as shown Table 5 below. Paw thickness was also measured using a dial caliper (Kroeplin, Munich, Germany).\nThe dose administered was calculated based on the assumption that the animals weighed, on average, 20 g. […]", "note": "At least one compound was matched to its structure with a doubt left."}
{"smiles": "C[C@@H]1C[C@H]2[C@@H]3CCC4=CC(=O)C=C[C@]4(C)[C@@]3(F)[C@@H](O)C[C@]2(C)[C@@]1(O)C(=O)CO", "note": "[dexamethasone, reference compound]", "values": [{"measurement": "rear paw arthritis score compared to vehicle", "setting": "days 5 and 12", "result": "significantly reduced rear paw arthritis score"}, {"measurement": "total arthritis score compared to vehicle", "setting": "days 6-12", "result": "significantly reduced total arthritis score"}]}
